This is an account of results in PubChem BioAssay AID743402 (Broad Institute, 2014).

SMILES strings stand for the structures. Out of some 1,200 compounds screened, about 140 (12%) were called active.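 How the source made its calls: active means fitted curve falls past -35% activity change at a dose under twice the top valid dose, in every replicate test; inconclusive means replicate tests disagree on the call; inactive means the rest, including activity in the opposite direction.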 This part holds few or none of the hits.

A short description of the assay: CFTR-F508del correctors, dose response, FRT cells, YFP quenching, cherry-pick (AID 743402).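 Further: compounds act as correctors raising surface CFTR-F508del before acute activation.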 The note with it: FRT CFTR-F508del YFP iodide quenching, 24 h, channel opened with forskolin and a potentiator; at 26 µM (top of the series) unless noted.
As for `O=c1cnc2ccccc2n1CC1CCCCC1`, the activity change, negative = more quenching (active) is inactive: 3.33%. Take `COc1ccc(OC)c(C(=O)Cn2nnc(-c3ccc(N4CCOCC4)cc3)n2)c1`: the activity change, negative = more quenching (active) is inactive: 0%. Regarding `COc1ccc(-c2oc3ccc(-c4cc(OC)c(OC)c(OC)c4)cc3c2C#Cc2ccccn2)cc1`, the activity change, negative = more quenching (active) is inactive: 6.46%. For the compound `Cc1ccc(Nc2nc(-c3sc(C)nc3C)cs2)cc1`, the activity change, negative = more quenching (active) is inactive: -14.7%. Under `COc1ccccc1OCC(O)CN1C(=O)NC(C)(C)C1=O` (centres undefined) stands inactive: 20%; under `CCOC(=O)c1ccc(N2CCOCC2)c(NC(=O)c2c(-c3ccccc3)noc2C)c1`, inactive: 0%.

In the case of `O=S(=O)(Nc1cc(Sc2cccc3cccnc23)c(O)c2ccccc12)c1ccccc1`, the activity change, negative = more quenching (active) was inactive: 26%.

On to `Cc1cc(C)cc(C(=O)NCC(=O)OCc2cc([N+](=O)[O-])cc3c2OCOC3)c1`, for which the activity change, negative = more quenching (active) is inactive: 1.61%. As for `Cc1cc(N/N=C/c2ccccc2O)c2ccccc2n1`, the activity change, negative = more quenching (active) was inactive: 13.1%. Take `COc1ccccc1NC(=S)NN=C(C)c1ccccn1`: the activity change, negative = more quenching (active) is inactive: 10.1%. Consider `Cc1cccc(NS(=O)(=O)c2ccc(-c3cnc(C4CC4)o3)cc2)c1`, for which the activity change, negative = more quenching (active) is inactive: -6.25%. Regarding `COc1cc2c(cc1OC)C(C)N(C(=O)Nc1cc(C)cc(C)c1)CC2` (centres undefined), the activity change, negative = more quenching (active) was inactive: 0%. On to `Cc1cccc(C(=O)OCC(=O)NC(C)C2CC3CCC2C3)c1O` (centres undefined), for which the activity change, negative = more quenching (active) was inactive: 6.97%. Consider `CCOC(=O)[C@H](CCc1ccccc1)N[C@@H](C)C(=O)N1[C@H](C(=O)O)C[C@@H]2CCC[C@@H]21`, for which the activity change, negative = more quenching (active) was inactive: 7.42%. On to `CC(C)(C)c1ccc(/C=C/C(=O)c2ccc(NC3=NCCCS3)cc2)cc1`, for which the activity change, negative = more quenching (active) was inactive: 1.85%. For the compound `Cc1ccc(-c2ccc3c(c2)O[C@@H](CN(C)C(=O)Nc2ccc(F)cc2)[C@@H](C)CN([C@H](C)CO)S3(=O)=O)cc1`, the activity change, negative = more quenching (active) was inactive: 19.4%. In the case of `COc1ccc(-c2ccc3c(c2)[C@H]2[C@H](CCN2S(=O)(=O)c2ccc(OC)cc2)[C@@H](CO)N3C)cc1`, the activity change, negative = more quenching (active) was inactive: -10.7%.

In the case of `CCCOCCOC(=O)c1[nH]c2c(c1C)C(=O)CC(c1cc(OC)ccc1OC)C2` (centres undefined), the activity change, negative = more quenching (active) was inactive: -8.41%. On to `Cc1ccc(COc2ccccc2-c2cc(C(=O)N/N=C/c3cccnc3)[nH]n2)cc1`, for which the activity change, negative = more quenching (active) is inactive: 22.5%. Take `O=S(=O)(Cc1ccccc1)N1CCCCN2[C@H](C1)[C@@H](c1ccc(C#Cc3ccccc3)cc1)[C@@H]2CO`: the activity change, negative = more quenching (active) was inactive: 3.12%. As to `COc1ccc(OC)c(C2CC(c3ccccc3)=NN2C(=S)Nc2ccccc2)c1` (centres undefined), the activity change, negative = more quenching (active) was inactive: -13.3%. As to `N#C[C@@H]1[C@H](c2ccc(-c3cccc(F)c3)cc2)[C@H](CO)N1C(=O)NC1CCCC1`, the activity change, negative = more quenching (active) was inactive: 3.57%. With `CCOCCOC(=O)COC(=O)c1ccccc1NC(=O)c1ccccc1`, the activity change, negative = more quenching (active) is inactive: 13.3%. With `COc1ccc2c3c([nH]c2c1)[C@H](CO)N(C(=O)C1CCOCC1)CC31CCN(Cc2cccc(F)c2)CC1`, the activity change, negative = more quenching (active) is inactive: -6.46%. With `COc1cc(/C=C2/SC(=Nc3ccc(O)cc3)NC2=O)cc(OC)c1O`, the activity change, negative = more quenching (active) is inactive: -5.56%. As to `O=C(N=Nc1c(O)[nH]c2ccc(Br)cc12)c1ccccc1-n1cccc1`, the activity change, negative = more quenching (active) was inactive: -13.3%.

As to `CC(=O)c1c(C)[nH]c(C(=O)OCC(=O)NCc2ccc(Cl)cc2)c1C`, the activity change, negative = more quenching (active) was inactive: 18.7%.

Regarding `O=c1cc(-c2ccc(O)c(O)c2)oc2cc(O)cc(O)c12`, the activity change, negative = more quenching (active) is inactive: 0%. Take `O=C(CN1CCN(S(=O)(=O)c2ccc(F)c(Cl)c2)CC1)N1CCc2ccccc2C1`: the activity change, negative = more quenching (active) is inactive: -3.33%. `CCOc1ccc(-c2cc(C(=O)N/N=C/c3ccc(O)cc3)c3ccccc3n2)cc1`: the activity change, negative = more quenching (active) was inactive: 7.69%. Take `COc1ccc(S(=O)(=O)Nc2cc3c(cc2C(C)=O)OCO3)cc1`: the activity change, negative = more quenching (active) is inactive: 22.7%. With `Cc1ccc(-c2nn(-c3ccccc3)cc2C(=O)N2CCN(c3ccccn3)CC2)cc1` the figure was inactive: 16.2%; with `C/C(=N\Nc1ncnc2sc(C)c(C)c12)c1ccccn1`, inactive: -20%.

For `COc1cc(C(=O)Nc2ccc3c(c2)CCN3C(C)=O)cc(OC)c1OC`, the activity change, negative = more quenching (active) is inactive: -6.67%.

Take `CC(C)(C)N(Cc1ccccc1)C(=O)c1cc2ccccc2o1`: the activity change, negative = more quenching (active) was inactive: 3.33%.

Take `COc1ccc(S(=O)(=O)NCc2ccccn2)cc1NC(=O)c1ccccc1F`: the activity change, negative = more quenching (active) is inactive: -10.7%.

For the compound `COc1ccccc1C1CC(=O)Nc2cc3c(cc21)OCCO3` (centres undefined), the activity change, negative = more quenching (active) is inactive: 9.58%. Regarding `COCCNC(=O)NC12CC3(C)CC(C)(CC(C)(C3)C1)C2`, the activity change, negative = more quenching (active) was inactive: 3.33%. Under `COc1ccc(C2=NOC(C(=O)NCc3ccccc3)C2)cc1` (centres undefined) stands inactive: -3.33%; under `CCOC(=O)c1[nH]c(C)c(/C(O)=C2\C(=O)C(=O)N(CCCN3CCOCC3)C2c2cccs2)c1C` (centres undefined), inactive: 7.42%. With `O=C1c2ccccc2C(=O)N1Cc1cnc(N2CCN(c3ccccc3)CC2)s1` the figure was inactive: 9.58%; with `COCOc1cccc(CN2CCC2(C)C(=O)Nc2ccc(C)c(O)c2)c1` (centres undefined), inactive: 7.14%. With `Cc1cccc(Nc2nc(N)nc(-c3oc4ccccc4c3C)n2)c1`, the activity change, negative = more quenching (active) is inactive: 3.33%. In the case of `COc1nc(N)nc(NC(=O)c2cccs2)c1N=O`, the activity change, negative = more quenching (active) was inactive: 0%. Regarding `CC(=O)c1cccc(Nc2c3c(nc4ccccc24)CCC3)c1`, the activity change, negative = more quenching (active) is inactive: 19.4%. In the case of `COc1ccc(S(=O)(=O)Nc2ccc3c(c2)C(=O)N([C@H](C)CO)C[C@@H](C)[C@@H](CN(C)Cc2ccc(Cl)c(Cl)c2)O3)cc1`, the activity change, negative = more quenching (active) was inactive: 3.12%.

On to `O=C(CSc1nc2ccccc2n1-c1ccccc1)Nc1ncc(Cl)cc1Cl`, for which the activity change, negative = more quenching (active) was inactive: -10%. On to `O=C(C[C@@H]1CC[C@H]2[C@@H](COC[C@H](O)CN2Cc2ccc3c(c2)OCO3)O1)Nc1ccc(-c2ccccc2)cc1`, for which the activity change, negative = more quenching (active) is inactive: 21.4% [at 2.85 µM]. `O=C(c1[nH]ncc1-c1cccc(Br)c1)C1CO1` (centres undefined): the activity change, negative = more quenching (active) was inactive: 3.33%. With `COc1cc(OC)c2c(-c3cccc(-c4cccc(N)c4)c3)cc(=O)oc2c1`, the activity change, negative = more quenching (active) was inactive: -3.33%. For the compound `CCN(C(=O)COC(=O)c1cc2c(s1)CCCC2)c1c(N)n(Cc2ccccc2)c(=O)[nH]c1=O`, the activity change, negative = more quenching (active) was inactive: 16.7%. Regarding `N#CC1c2ccccc2-c2ccccc2N1C(=O)c1ccccc1` (centres undefined), the activity change, negative = more quenching (active) was inactive: 3.33%.

Take `CC(=O)c1cc(NC(=O)c2cccc(C(F)(F)F)c2)c(=O)oc1C`: the activity change, negative = more quenching (active) is inactive: 20%. Take `CC(=O)NC(c1ccc(C(C)C)cc1)c1ccc2cccnc2c1O` (centres undefined): the activity change, negative = more quenching (active) is inactive: 13.9%.
